{"source": "the supplement of paper PMC3334620", "note": "The full ranking holds about 33,000 sequences; the median of “E-score (-0.5 to 0.5)” is about -0.0034, and the highest 2% start at about 0.25. This is one part of the list."}
{"biological_target": "T1, Yap3 (UniProt P38749)", "T1 sequence": "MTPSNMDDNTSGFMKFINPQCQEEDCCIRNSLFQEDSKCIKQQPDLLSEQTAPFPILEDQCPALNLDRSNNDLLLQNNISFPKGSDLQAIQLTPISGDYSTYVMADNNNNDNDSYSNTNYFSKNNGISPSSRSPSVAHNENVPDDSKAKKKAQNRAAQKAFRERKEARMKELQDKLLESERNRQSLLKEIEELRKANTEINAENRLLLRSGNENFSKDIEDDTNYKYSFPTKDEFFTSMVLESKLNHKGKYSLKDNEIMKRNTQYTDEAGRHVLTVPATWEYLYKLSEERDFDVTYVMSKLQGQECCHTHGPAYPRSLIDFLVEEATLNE", "test": "PBM E-score (8-mer binding enrichment) (E-score (-0.5 to 0.5)); higher = stronger / more preferred TF binding", "conditions": "protein concentration: 100 nM; construct: GST-full length", "outline": "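Yeast transcription factors, full-length or as DNA-binding domains, were expressed with a GST tag using PURExpress in vitro transcription/translation. At about 100-200 nM they were applied to universal all-10-mer Agilent arrays, double-stranded by primer extension on fresh or once-stripped slides. Fluorescent anti-GST detected bound protein, and masliner normalised the scans. E-scores for ungapped eight-base words, pooled with reverse complements, came from the Universal PBM Analysis Suite.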"}
{"sequence": "CACGTTCG", "PBM E-score": -0.00184}
{"sequence": "CTAGGAGA", "PBM E-score": -0.182}
{"sequence": "AACCGCGT", "PBM E-score": 0.199}
{"sequence": "GTACTTAA", "PBM E-score": -0.0578}
{"sequence": "CACAGGTC", "PBM E-score": -0.158}
{"sequence": "ATAGGCCG", "PBM E-score": -0.231}
{"sequence": "ATACAAAC", "PBM E-score": 0.239}
{"sequence": "AGCCTGCC", "PBM E-score": -0.103}
{"sequence": "GGCGCCGA", "PBM E-score": 0.00064}
{"sequence": "AACGAACA", "PBM E-score": 0.259}
{"sequence": "GAGACCGA", "PBM E-score": -0.0759}
{"sequence": "CAACGTCA", "PBM E-score": -0.0272}
{"sequence": "TCCAAAAA", "PBM E-score": 0.0789}
{"sequence": "GACCATGC", "PBM E-score": -0.0665}
{"sequence": "GTAATGGA", "PBM E-score": 0.288}
{"sequence": "ACTCCTGG", "PBM E-score": -0.163}
{"sequence": "CCGATACG", "PBM E-score": -0.0939}
{"sequence": "CCGTCAGG", "PBM E-score": -0.227}
{"sequence": "AAGACTTC", "PBM E-score": -0.161}
{"sequence": "AGTGGTGC", "PBM E-score": -0.0298}
{"sequence": "GCCTGACC", "PBM E-score": -0.168}
{"sequence": "ACCCCCTG", "PBM E-score": -0.427}
{"sequence": "AGGTGAGC", "PBM E-score": -0.183}
{"sequence": "ACGTCTAG", "PBM E-score": -0.0164}
{"sequence": "CCTGGCTC", "PBM E-score": -0.16}
{"sequence": "GCCTAGGC", "PBM E-score": -0.131}
{"sequence": "AGTGACCG", "PBM E-score": -0.211}
{"sequence": "ACCGTGGA", "PBM E-score": -0.125}
{"sequence": "CAGTAAGA", "PBM E-score": 0.129}
{"sequence": "CCGACGAA", "PBM E-score": 0.11}
{"sequence": "ACTCACGG", "PBM E-score": 0.109}
{"sequence": "GTTAGGGA", "PBM E-score": -0.0734}
{"sequence": "CGTGGCAG", "PBM E-score": -0.0996}
{"sequence": "CGCGTGGA", "PBM E-score": -0.183}
{"sequence": "ACTAAACA", "PBM E-score": 0.237}
{"sequence": "AACCAACA", "PBM E-score": -0.00605}
{"sequence": "ATCATCCC", "PBM E-score": 0.016}
{"sequence": "CGTTTATC", "PBM E-score": 0.117}
{"sequence": "CGTCATTA", "PBM E-score": 0.161}
{"sequence": "GTCAACCA", "PBM E-score": -0.0972}
{"sequence": "ATGACGAC", "PBM E-score": 0.113}
{"sequence": "ACCACGCG", "PBM E-score": 0.0791}
{"sequence": "ATAGTGGG", "PBM E-score": 0.0666}
{"sequence": "GCCCCCTA", "PBM E-score": -0.246}
{"sequence": "AGATCGAG", "PBM E-score": 0.0939}
{"sequence": "AGGCATGG", "PBM E-score": 0.00347}
{"sequence": "ACCCATAA", "PBM E-score": 0.0521}
{"sequence": "GCTGCCCC", "PBM E-score": -0.196}
{"sequence": "CAGTTAAC", "PBM E-score": 0.112}
{"sequence": "GGGGTCAA", "PBM E-score": -0.0796}
{"sequence": "AAACGAGA", "PBM E-score": 0.0399}
{"sequence": "AATGCTTA", "PBM E-score": 0.145}
{"sequence": "CGCCCGCA", "PBM E-score": -0.0032}
{"sequence": "CACGCTAA", "PBM E-score": 0.0663}
{"sequence": "AGCATGCC", "PBM E-score": -0.108}
{"sequence": "GGAAGTCA", "PBM E-score": 0.0375}
{"sequence": "AGTGCCTG", "PBM E-score": -0.0521}
{"sequence": "GCCCGGTA", "PBM E-score": -0.119}
{"sequence": "GGTTTCAA", "PBM E-score": 0.118}
{"sequence": "GTCGATCA", "PBM E-score": -0.0564}
{"sequence": "ACTTTCTC", "PBM E-score": 0.0826}
{"sequence": "CGGACTGC", "PBM E-score": -0.138}
{"sequence": "AATGCATG", "PBM E-score": 0.188}
{"sequence": "ATTGAGCG", "PBM E-score": 0.0784}
{"sequence": "CGTAAATA", "PBM E-score": 0.262}
{"sequence": "ATTTTCCG", "PBM E-score": 0.325}
{"sequence": "AATCTTGA", "PBM E-score": -0.0715}
{"sequence": "ATTCGTTA", "PBM E-score": 0.25}
{"sequence": "ACTGTTTA", "PBM E-score": 0.0153}
{"sequence": "ATCTACTA", "PBM E-score": 0.185}
{"sequence": "AGTCTCAG", "PBM E-score": -0.122}
{"sequence": "ATGTTAAC", "PBM E-score": 0.173}
{"sequence": "AAGCCATG", "PBM E-score": -0.225}
{"sequence": "CCAATCGA", "PBM E-score": 0.0798}
{"sequence": "GATACTTA", "PBM E-score": -0.117}
{"sequence": "CACTCAGG", "PBM E-score": -0.13}
{"sequence": "AACCCACC", "PBM E-score": -0.0511}
{"sequence": "AACATAAG", "PBM E-score": 0.308}
{"sequence": "GACACCGA", "PBM E-score": -0.136}
{"sequence": "AGCAGCTA", "PBM E-score": 0.0398}
{"sequence": "CAACTGGG", "PBM E-score": -0.294}
{"sequence": "CGAATCTA", "PBM E-score": -0.00374}
{"sequence": "GATCCCCA", "PBM E-score": -0.15}
{"sequence": "TGGCAGAA", "PBM E-score": 0.045}
{"sequence": "CCCTGTTC", "PBM E-score": -0.17}
{"sequence": "CTTCCAAG", "PBM E-score": -0.0916}
{"sequence": "GTTGCATA", "PBM E-score": -0.0298}
{"sequence": "ATCTCGCG", "PBM E-score": 0.228}
{"sequence": "GAGCACAC", "PBM E-score": -0.15}
{"sequence": "CTTCAACC", "PBM E-score": 0.124}
{"sequence": "GCAGGCCC", "PBM E-score": -0.296}
{"sequence": "CCCATTCC", "PBM E-score": -0.238}
{"sequence": "ATATGGAC", "PBM E-score": 0.0106}
{"sequence": "AAACTCCC", "PBM E-score": -0.213}
{"sequence": "AAGATTAG", "PBM E-score": 0.13}
{"sequence": "GCCCTGAA", "PBM E-score": -0.0295}
{"sequence": "TGAACTCA", "PBM E-score": -0.0419}
{"sequence": "CCTAAAGC", "PBM E-score": -0.065}
{"sequence": "AATCGCTA", "PBM E-score": -0.00025}
{"sequence": "GGGTAGAA", "PBM E-score": 0.0334}
{"sequence": "ATGAAATA", "PBM E-score": 0.288}
{"sequence": "ACCCAACG", "PBM E-score": 0.134}
{"sequence": "ATCCATAC", "PBM E-score": 0.179}
{"sequence": "GGGAGTAC", "PBM E-score": -0.129}
{"sequence": "CACGGCCC", "PBM E-score": -0.14}
{"sequence": "CTTGGGAA", "PBM E-score": 0.0327}
{"sequence": "CTAGTAGA", "PBM E-score": 0.0227}
{"sequence": "AGCGCCCG", "PBM E-score": -0.176}
{"sequence": "ACACCGTC", "PBM E-score": -0.138}
